Paper PMC6673703, “14-3-3 signal adaptor and scaffold proteins mediate GPCR trafficking” (Scientific Reports, 2019)
These are yes or no findings as the source states them, for the method shown. Some binding calls cover weakened binding; strength is not graded here. For some of these results: Sequences can lack the tags named with a protein.

Amino acid sequences for entries named in this document (tags omitted). A change or cut given only in a name is not applied to a line headed by its entry.
UniProt P35372: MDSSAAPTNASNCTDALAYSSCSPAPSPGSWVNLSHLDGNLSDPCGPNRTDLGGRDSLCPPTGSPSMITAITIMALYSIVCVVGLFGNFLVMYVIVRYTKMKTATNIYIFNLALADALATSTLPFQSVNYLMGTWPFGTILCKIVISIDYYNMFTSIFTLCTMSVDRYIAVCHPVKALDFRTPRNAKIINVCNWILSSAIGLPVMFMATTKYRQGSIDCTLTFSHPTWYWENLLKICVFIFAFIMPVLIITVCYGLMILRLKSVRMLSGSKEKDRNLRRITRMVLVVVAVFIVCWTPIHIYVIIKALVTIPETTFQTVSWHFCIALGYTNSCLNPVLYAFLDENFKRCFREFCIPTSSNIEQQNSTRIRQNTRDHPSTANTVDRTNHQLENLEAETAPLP
UniProt P21453: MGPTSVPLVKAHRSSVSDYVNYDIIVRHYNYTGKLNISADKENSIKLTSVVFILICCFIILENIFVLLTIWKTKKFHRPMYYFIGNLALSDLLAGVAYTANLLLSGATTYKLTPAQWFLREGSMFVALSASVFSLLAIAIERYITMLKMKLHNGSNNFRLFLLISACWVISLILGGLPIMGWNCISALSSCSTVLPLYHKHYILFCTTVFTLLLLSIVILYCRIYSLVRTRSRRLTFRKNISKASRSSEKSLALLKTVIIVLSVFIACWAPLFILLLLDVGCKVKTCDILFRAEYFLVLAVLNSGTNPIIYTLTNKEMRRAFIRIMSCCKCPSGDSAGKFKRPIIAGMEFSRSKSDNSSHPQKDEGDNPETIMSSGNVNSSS
UniProt P08912: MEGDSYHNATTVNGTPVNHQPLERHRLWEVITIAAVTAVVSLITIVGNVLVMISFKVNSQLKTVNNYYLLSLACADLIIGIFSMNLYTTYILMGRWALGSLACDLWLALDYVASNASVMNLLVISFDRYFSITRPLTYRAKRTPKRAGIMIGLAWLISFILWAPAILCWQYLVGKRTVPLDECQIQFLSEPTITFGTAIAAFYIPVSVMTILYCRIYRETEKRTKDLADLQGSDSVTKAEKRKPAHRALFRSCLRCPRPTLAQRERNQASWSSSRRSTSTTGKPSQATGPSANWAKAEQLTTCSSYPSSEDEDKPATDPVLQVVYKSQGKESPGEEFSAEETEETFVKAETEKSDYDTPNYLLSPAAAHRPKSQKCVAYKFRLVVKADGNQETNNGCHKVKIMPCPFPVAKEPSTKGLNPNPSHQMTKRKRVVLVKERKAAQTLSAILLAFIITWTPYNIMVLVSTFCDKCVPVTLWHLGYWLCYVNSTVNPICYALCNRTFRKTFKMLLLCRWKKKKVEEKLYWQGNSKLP
UniProt P21918: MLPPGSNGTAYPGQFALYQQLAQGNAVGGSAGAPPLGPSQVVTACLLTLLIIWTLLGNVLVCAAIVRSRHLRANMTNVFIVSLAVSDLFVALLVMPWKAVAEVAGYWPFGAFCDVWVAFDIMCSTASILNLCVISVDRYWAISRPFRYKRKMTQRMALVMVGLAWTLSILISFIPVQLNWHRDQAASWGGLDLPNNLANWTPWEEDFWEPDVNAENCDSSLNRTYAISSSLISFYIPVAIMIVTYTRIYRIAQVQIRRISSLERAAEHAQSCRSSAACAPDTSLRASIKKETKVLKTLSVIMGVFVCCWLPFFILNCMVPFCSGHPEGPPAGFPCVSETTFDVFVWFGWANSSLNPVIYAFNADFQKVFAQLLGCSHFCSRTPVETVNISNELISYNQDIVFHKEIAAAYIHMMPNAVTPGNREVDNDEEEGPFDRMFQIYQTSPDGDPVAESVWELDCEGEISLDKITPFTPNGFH
UniProt P32121: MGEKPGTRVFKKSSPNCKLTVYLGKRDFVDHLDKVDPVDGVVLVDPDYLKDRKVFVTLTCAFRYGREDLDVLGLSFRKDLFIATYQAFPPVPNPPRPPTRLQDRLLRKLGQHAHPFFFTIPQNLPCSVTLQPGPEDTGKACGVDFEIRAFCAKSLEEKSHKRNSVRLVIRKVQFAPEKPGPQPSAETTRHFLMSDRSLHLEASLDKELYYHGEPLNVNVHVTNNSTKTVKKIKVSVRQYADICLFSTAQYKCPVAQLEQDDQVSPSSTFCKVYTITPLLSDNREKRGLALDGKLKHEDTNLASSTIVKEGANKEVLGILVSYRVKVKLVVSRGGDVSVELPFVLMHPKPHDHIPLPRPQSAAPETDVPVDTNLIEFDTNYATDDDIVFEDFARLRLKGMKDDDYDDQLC

Columns and labels:
[1] = molecular target: μ-opioid receptor (MOR1)-TEV (human) (UniProt P35372); test: LinkLight assay (TEV protease on one partner cuts permuted luciferase on the other; luminescence end point); HEK293 cells stably expressing GPCR-TEV and β-arrestin-2-pLuc; serum-free DMEM, serial 1:3 dilution of ligand, 37 °C, 120 min unless otherwise specified; agonist-induced signals
[2] = molecular target: sphingosine-1-phosphate receptor 1 (S1PR1)-TEV (human) (UniProt P21453); test: as above
[3] = molecular target: muscarinic cholinergic receptor 5 (CHRM5)-TEV (human) (UniProt P08912); test: as above
[4] = molecular target: DRD5(S260A-S261A)-TEV (human) (UniProt P21918); test: LinkLight assay (TEV protease on one partner cuts permuted luciferase on the other; luminescence end point); DRD5-TEV wild type or mutant plasmids transiently transfected into 14-3-3-pLuc (results: 14-3-3γ-pLuc) HEK293 host cells; with or without 10 μM dopamine, four hours, 37 °C
[5] = molecular target: wild type DRD5-TEV (dopamine receptor 5) (human) (UniProt P21918); test: as above
[6] = molecular target: DRD5(S464A)-TEV (human) (UniProt P21918); test: as above
[7] = molecular target: DRD5(T443A)-TEV (human) (UniProt P21918); test: as above

Row | Molecule | binding [1] | binding [2] | binding [3] | binding [4] | binding [5] | binding [6] | binding [7]
1 | β-arrestin-2-permuted luciferase (β-arr-2-pLuc) (from UniProt P32121 1-409) | binds | binds | binds | – | – | – | –
2 | 14-3-3γ-pLuc (protein, UniProt P61981 1-247) MVDREQLVQKARLAEQAERYDDMAAAMKNVTELNEPLSNEERNLLSVAYKNVVGARRSSWRVISSIEQKTSADGNEKKIEMVRAYREKIEKELEAVCQDVLSLLDNYLIKNCSETQYESKVFYLKMKGDYYRYLAEVATGEKRATVVESSEKAYSEAHEISKEHMQPTHPIRLGLALNYSVFYYEIQNAPEQACHLAKTAFDDAIAELDTLNEDSYKDSTLIMQLLRDNLTLWTSDQQDDDGGEGNN | – | – | – | binds | binds | binds | no binding
